Data reported in PMC13482819.
No constants are given. Whether binding was seen depends on the method and setting. Binding seen in cells or lysates may run through a third protein. Some results given as binding are weak or reduced against the parent protein; the word gives no strength. Tags and fused reporters may be left off the sequences shown.

Amino acid sequences for entries named in this document (tags omitted). A change or cut given only in a name is not applied to a line headed by its entry.
UniProt Q86WV6: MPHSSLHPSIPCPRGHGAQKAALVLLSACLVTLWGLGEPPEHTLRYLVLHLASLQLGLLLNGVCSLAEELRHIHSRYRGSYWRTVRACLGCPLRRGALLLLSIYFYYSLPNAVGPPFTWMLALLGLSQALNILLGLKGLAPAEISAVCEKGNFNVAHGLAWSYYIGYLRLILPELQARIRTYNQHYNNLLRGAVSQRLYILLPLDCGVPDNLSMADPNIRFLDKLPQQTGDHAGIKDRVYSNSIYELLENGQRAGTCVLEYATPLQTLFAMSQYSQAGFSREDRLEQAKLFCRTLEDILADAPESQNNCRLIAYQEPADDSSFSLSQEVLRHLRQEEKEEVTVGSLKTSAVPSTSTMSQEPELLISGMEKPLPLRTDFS

Key:
[1] = target: HA-tagged STING Y314E (phosphomimetic mutant) (human) (UniProt Q86WV6); assay: co-IP; HEK293T co-transfected with tagged proteins (24 h), lysate in modified MLB buffer; IP with anti-HA; immunoblot with anti-EGFR, anti-Myc, anti-HA; HA-bait-negative controls; in some panels Flag-EGFR wild type or mEGFR co-expressed
[2] = target: HA-tagged STING Y245E (phosphomimetic mutant) (human) (UniProt Q86WV6); assay: as above
[3] = target: HA-tagged STING (wild type) (human), Q86WV6; assay: as above; conditions: remark: other sources report otherwise
[4] = target: T1, Myc-tagged IRF3 2SA mutant (S385A/S386A) (human) (UniProt Q14653); assay: co-IP; HEK293T co-transfected with Flag-tagged wild-type EGFR or mEGFR, Myc-tagged IRF3 2SA and HA-tagged TBK1, lysate in modified MLB buffer; IP with anti-Myc; immunoblot
T1 sequence: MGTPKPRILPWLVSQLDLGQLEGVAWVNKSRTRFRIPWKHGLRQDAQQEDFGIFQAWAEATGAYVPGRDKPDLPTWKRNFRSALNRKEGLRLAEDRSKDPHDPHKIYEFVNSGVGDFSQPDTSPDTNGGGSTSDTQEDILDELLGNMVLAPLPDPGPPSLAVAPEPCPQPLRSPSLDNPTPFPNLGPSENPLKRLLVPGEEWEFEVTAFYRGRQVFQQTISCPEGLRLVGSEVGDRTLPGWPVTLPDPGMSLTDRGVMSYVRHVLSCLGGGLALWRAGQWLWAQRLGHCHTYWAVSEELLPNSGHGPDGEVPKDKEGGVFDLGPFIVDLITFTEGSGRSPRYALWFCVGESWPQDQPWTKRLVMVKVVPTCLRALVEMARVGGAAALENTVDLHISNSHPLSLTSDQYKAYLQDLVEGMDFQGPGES

B1: Myc-tagged TBK1 (enzyme, UniProt Q9UHD2 1-729)
chain: MQSTSNHLWLLSDILGQGATANVFRGRHKKTGDLFAIKVFNNISFLRPVDVQMREFEVLKKLNHKNIVKLFAIEEETTTRHKVLIMEFCPCGSLYTVLEEPSNAYGLPESEFLIVLRDVVGGMNHLRENGIVHRDIKPGNIMRVIGEDGQSVYKLTDFGAARELEDDEQFVSLYGTEEYLHPDMYERAVLRKDHQKKYGATVDLWSIGVTFYHAATGSLPFRPFEGPRRNKEVMYKIITGKPSGAISGVQKAENGPIDWSGDMPVSCSLSRGLQVLLTPVLANILEADQEKCWGFDQFFAETSDILHRMVIHVFSLQQMTAHKIYIHSYNTATIFHELVYKQTKIISSNQELIYEGRRLVLEPGRLAQHFPKTTEENPIFVVSREPLNTIGLIYEKISLPKVHPRYDLDGDASMAKAITGVVCYACRIASTLLLYQELMRKGIRWLIELIKDDYNETVHKKTEVVITLDFCIRNIEKTVKVYEKLMKINLEAAELGEISDIHTKLLRLSSSQGTIETSLQDIDSRLSPGGSLADAWAHQEGTHPKDRNVEKLQVLLNCMTEIYYQFKKDKAERRLAYNEEQIHKFDKQKLYYHATKAMTHFTDECVKKYEAFLNKSEEWIRKMLHLRKQLLSLTNQCFDIEEEVSKYQEYTNELQETLPQKMFTASSGIKHTMTPIYPSSNTLVEMTLGMKKLKEEMEGVVKELAENNHILERFGSLTMDGGLRNVDCL
For B1, the binding [1] was “binds” and the binding [2] was “binds”.

B2: Myc-tagged TBK1, Q9UHD2 1-729 (enzyme)
chain: MQSTSNHLWLLSDILGQGATANVFRGRHKKTGDLFAIKVFNNISFLRPVDVQMREFEVLKKLNHKNIVKLFAIEEETTTRHKVLIMEFCPCGSLYTVLEEPSNAYGLPESEFLIVLRDVVGGMNHLRENGIVHRDIKPGNIMRVIGEDGQSVYKLTDFGAARELEDDEQFVSLYGTEEYLHPDMYERAVLRKDHQKKYGATVDLWSIGVTFYHAATGSLPFRPFEGPRRNKEVMYKIITGKPSGAISGVQKAENGPIDWSGDMPVSCSLSRGLQVLLTPVLANILEADQEKCWGFDQFFAETSDILHRMVIHVFSLQQMTAHKIYIHSYNTATIFHELVYKQTKIISSNQELIYEGRRLVLEPGRLAQHFPKTTEENPIFVVSREPLNTIGLIYEKISLPKVHPRYDLDGDASMAKAITGVVCYACRIASTLLLYQELMRKGIRWLIELIKDDYNETVHKKTEVVITLDFCIRNIEKTVKVYEKLMKINLEAAELGEISDIHTKLLRLSSSQGTIETSLQDIDSRLSPGGSLADAWAHQEGTHPKDRNVEKLQVLLNCMTEIYYQFKKDKAERRLAYNEEQIHKFDKQKLYYHATKAMTHFTDECVKKYEAFLNKSEEWIRKMLHLRKQLLSLTNQCFDIEEEVSKYQEYTNELQETLPQKMFTASSGIKHTMTPIYPSSNTLVEMTLGMKKLKEEMEGVVKELAENNHILERFGSLTMDGGLRNVDCL
With B2 the binding [3] was “binds”.

B3: HA-tagged TBK1 (enzyme, UniProt Q9UHD2 1-729)
chain: MQSTSNHLWLLSDILGQGATANVFRGRHKKTGDLFAIKVFNNISFLRPVDVQMREFEVLKKLNHKNIVKLFAIEEETTTRHKVLIMEFCPCGSLYTVLEEPSNAYGLPESEFLIVLRDVVGGMNHLRENGIVHRDIKPGNIMRVIGEDGQSVYKLTDFGAARELEDDEQFVSLYGTEEYLHPDMYERAVLRKDHQKKYGATVDLWSIGVTFYHAATGSLPFRPFEGPRRNKEVMYKIITGKPSGAISGVQKAENGPIDWSGDMPVSCSLSRGLQVLLTPVLANILEADQEKCWGFDQFFAETSDILHRMVIHVFSLQQMTAHKIYIHSYNTATIFHELVYKQTKIISSNQELIYEGRRLVLEPGRLAQHFPKTTEENPIFVVSREPLNTIGLIYEKISLPKVHPRYDLDGDASMAKAITGVVCYACRIASTLLLYQELMRKGIRWLIELIKDDYNETVHKKTEVVITLDFCIRNIEKTVKVYEKLMKINLEAAELGEISDIHTKLLRLSSSQGTIETSLQDIDSRLSPGGSLADAWAHQEGTHPKDRNVEKLQVLLNCMTEIYYQFKKDKAERRLAYNEEQIHKFDKQKLYYHATKAMTHFTDECVKKYEAFLNKSEEWIRKMLHLRKQLLSLTNQCFDIEEEVSKYQEYTNELQETLPQKMFTASSGIKHTMTPIYPSSNTLVEMTLGMKKLKEEMEGVVKELAENNHILERFGSLTMDGGLRNVDCL
In the case of B3, the binding [4] is reported as “binds”.
